Results deposited as PubChem BioAssay AID504791 (Drosophila RNAi Screening Center, 2011).

Purpose: 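Genes whose knock-down strengthens or weakens small-RNA reporter silencing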 (primary screen)
Cells: Drosophila S2-derived reporter cells
Knock-down reagent: long dsRNA against Drosophila genes, about 150-250 ng dsRNA per well (siRNA assay); about 80-120 ng (miRNA assay)
Time to read-out: about 5 days (siRNA assay); about 4 days (miRNA assay)
Challenge: copper sulfate induction of reporters: 25 µM (siRNA assay); 200 mM stated (miRNA assay), 1-2 days before reading
Measured: 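Dual luciferase assay: Renilla to firefly signal ratio in each well, scaled to the mean ratio of its plate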
Rule for the call: 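a well was a first-pass pick when its plate-scaled ratio rose above 1.5 (siRNA assay) or 1.6 (miRNA assay), or dropped below 0.6; a gene counted only if two separate dsRNAs agreed on retest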
The screen tested about 23,000 reagents; below is an unselected part of those with a known target gene and a result. Over the whole deposit, 199 (0.86%) are marked active. 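Plate-scaled ratios behind the calls are not deposited; printed light signals are raw; many rows marked increased or decreased are still called inactive.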 The numbers tell different reagents against one gene apart. A plus sign joins genes that one reagent is predicted to hit. Reagent sequences are not shown. Not stated in the record: the direction of the score.

| stable siRNA reporter change | miRNA reporter change | stable assay Renilla, run 1 (luminescence) | stable assay firefly, run 1 (luminescence) | Outcome | Target gene | reagent no. |
| --- | --- | --- | --- | --- | --- | --- |
| – | – | 7988 | 4.67e5 | inactive | fred | 1 |
| – | – | 4328 | 4.27e5 | inactive | fred | 2 |
| – | – | 8785 | 4.08e5 | inactive | fred | 3 |
| – | – | 7411 | 3.52e5 | inactive | fred | 4 |
| – | – | 8143 | 4.85e5 | inactive | fred | 5 |
| – | – | 7294 | 2.77e5 | inactive | CheA75a | 1 |
| – | – | 38889 | 1.69e6 | inactive | Cse1 | 1 |
| – | – | 9214 | 2.59e5 | inactive | CG7183 | 1 |
| – | – | 5818 | 4.97e5 | inactive | Lcp65Af | 1 |
| – | – | 26808 | 1.23e6 | inactive | Acn | 1 |
| – | – | 6518 | 4.18e5 | inactive | CG10979 | 1 |
| – | – | 6883 | 4.83e5 | inactive | Prosbeta2R2 | 1 |
| – | – | 8947 | 7.43e5 | inactive | CG1812 | 1 |
| – | – | 20775 | 1.25e6 | inactive | Upf3 | 1 |
| – | – | 8247 | 5.19e5 | inactive | CG8046 | 1 |
| – | – | 10127 | 7.00e5 | inactive | Cyp309a2 | 1 |
| – | – | 5864 | 3.72e5 | inactive | CG6834 | 1 |
| – | – | 3664 | 3.10e5 | inactive | disco-r | 1 |
| – | – | 4871 | 4.02e5 | inactive | disco-r | 2 |
| – | – | 7543 | 5.21e5 | inactive | CG32262 | 1 |
| – | – | 4991 | 2.92e5 | inactive | Grl40a | 1 |
| – | – | 6158 | 2.97e5 | inactive | CG9876 | 1 |
| – | – | 6998 | 4.03e5 | inactive | Drgx | 1 |
| – | – | 7251 | 4.33e5 | inactive | Drgx | 2 |
| – | – | 6419 | 4.34e5 | inactive | HSPBAP1 | 1 |
| – | – | 6594 | 4.70e5 | inactive | se | 1 |
| – | – | 6931 | 3.77e5 | inactive | Def | 1 |
| – | – | 7606 | 4.50e5 | inactive | Fbxl7 | 1 |
| – | – | 4351 | 4.25e5 | inactive | squ | 1 |
| – | – | 4252 | 3.82e5 | inactive | dlg1 | 1 |
| – | – | 5139 | 5.08e5 | inactive | dlg1 | 2 |
| – | – | 4447 | 4.64e5 | inactive | dlg1 | 3 |
| – | – | 7275 | 4.26e5 | inactive | dlg1 | 4 |
| – | – | 8136 | 4.44e5 | inactive | CG4270 | 1 |
| – | – | 6226 | 3.46e5 | inactive | CG1888 | 1 |
| – | – | 74286 | 1.74e6 | inactive | CG10631 | 1 |
| – | – | 7006 | 3.90e5 | inactive | ftz-f1 | 1 |
| – | – | 7599 | 4.77e5 | inactive | Cubn2 | 1 |
| – | – | 11571 | 7.18e5 | inactive | Cubn2 | 2 |
| – | – | 6476 | 4.56e5 | inactive | Scox | 1 |
| – | – | 8039 | 4.38e5 | inactive | CG15432 | 1 |
| – | – | 5388 | 4.09e5 | inactive | CG8135 + BBIP1 | 1 |
| – | – | 6651 | 3.75e5 | inactive | CG8135 + BBIP1 | 2 |
| – | – | 6383 | 3.36e5 | inactive | Cp190 | 1 |
| – | – | 5631 | 5.10e5 | inactive | CG8191 + CG12379 | 1 |
| – | – | 8066 | 4.59e5 | inactive | obst-J | 1 |
| – | – | 5251 | 4.66e5 | inactive | Alg14 | 1 |
| – | – | 8086 | 3.38e5 | inactive | Pisd | 1 |
| – | – | 6508 | 4.75e5 | inactive | Lcp65Ab2 + Lcp65Ab1 | 1 |
| – | – | 6699 | 4.75e5 | inactive | Lcp65Ab2 + Lcp65Ab1 | 2 |
| reporter ratio raised past the hit cutoff | – | 12218 | 4.40e5 | active | pk | 1 |
| – | – | 7295 | 4.12e5 | inactive | pk | 2 |
| – | – | 8002 | 5.36e5 | inactive | pk | 3 |
| – | – | 3039 | 2.73e5 | inactive | CG42240 | 1 |
| – | – | 6963 | 3.00e5 | inactive | Cpr11B | 1 |
| – | – | 10828 | 4.12e5 | inactive | sub | 1 |
| – | – | 55962 | 1.81e6 | inactive | CG10366 | 1 |
| – | – | 5678 | 5.07e5 | inactive | CG13227 | 1 |
| – | – | 5846 | 3.29e5 | inactive | CG13891 | 1 |
| – | – | 4147 | 4.88e5 | inactive | COX7C | 1 |
| – | – | 5355 | 3.55e5 | inactive | CG12507 | 1 |
| – | – | 6718 | 3.35e5 | inactive | CG17786 | 1 |
| – | – | 64303 | 1.17e6 | inactive | Taldo | 1 |
| – | – | 6003 | 2.91e5 | inactive | Acp53C14a | 1 |
| – | reporter ratio raised past the hit cutoff | 7238 | 3.35e5 | inactive | CG18581 | 1 |
| – | – | 5519 | 3.53e5 | inactive | CG32111 (retired record) | 1 |
| – | – | 8312 | 4.11e5 | inactive | CG31288 | 1 |
| – | – | 6431 | 4.99e5 | inactive | Osi11 | 1 |
| – | – | 7643 | 4.18e5 | inactive | CG30178 | 1 |
| – | – | 9244 | 4.86e5 | inactive | CG30161 | 1 |
| – | – | 6600 | 3.24e5 | inactive | CycB3 | 1 |
| – | – | 11697 | 4.47e5 | inactive | Xpc | 1 |
| – | – | 7082 | 4.41e5 | inactive | yin | 1 |
| – | – | 8886 | 5.82e5 | inactive | yin | 2 |
| – | – | 6623 | 4.36e5 | inactive | PolE4 | 1 |
| – | – | 6754 | 4.47e5 | inactive | Pss | 1 |
| – | – | 6950 | 4.23e5 | inactive | sqd | 1 |
| – | – | 3323 | 4.35e5 | inactive | sqd | 2 |
| – | – | 6127 | 3.83e5 | inactive | puc | 1 |
| – | – | 6403 | 3.83e5 | inactive | CG11608 | 1 |
| – | – | 29816 | 2.40e5 | inactive | CG7251 | 1 |
| – | – | 8975 | 4.91e5 | inactive | CG17746 | 1 |
| – | – | 4880 | 3.32e5 | inactive | CG17746 | 2 |

Looked up above.
Value for squ in “stable assay Renilla, run 1 (luminescence)”: 4351
Lcp65Af, Outcome: inactive
Result for CG11608 in “Outcome”: inactive
For “Outcome”, Cpr11B shows inactive
Result of CG8191 + CG12379 in “stable assay Renilla, run 1 (luminescence)”: 5631
